Measured values taken from patent US20250368982A1.
No constants are given. Whether binding was seen depends on the method and setting. Some entries that bind do so weakly or less than the wild type.

Tests used:
[1] = target: QβStrep recombinant Qβ phage displaying the Strep II tag on A1 (RNA coliphage Qβ) (UniProt Q8LTE1); assay: ELISA, plate coated with phage, HRP conjugate titrated
[2] = target: QβStrep recombinant Qβ phage displaying the Strep II tag on A1 (RNA coliphage Qβ) (UniProt Q8LTE1); assay: dot blot of phage dilutions on nitrocellulose, HRP conjugate
[3] = target: QβStrep recombinant Qβ phage displaying the Strep II tag on A1 (RNA coliphage Qβ) (UniProt Q8LTE1); assay: ELISA, plate coated with phage

Measured: binding

streptavidin conjugated to HRP (from UniProt P22629 37-163)
binds: all assays above
